This is an account of results in the supplement of paper PMC12819154, “High-throughput peptide-centric local stability assay extends protein–ligand identification to membrane proteins, tissues and bacteria” (Nature Structural & Molecular Biology, 2025).

Chains of the proteins cited; added tags and fusions are not shown. Lines headed by an entry give the natural chain unless they say otherwise; changes in a name come on top.
UniProt Q96EK5: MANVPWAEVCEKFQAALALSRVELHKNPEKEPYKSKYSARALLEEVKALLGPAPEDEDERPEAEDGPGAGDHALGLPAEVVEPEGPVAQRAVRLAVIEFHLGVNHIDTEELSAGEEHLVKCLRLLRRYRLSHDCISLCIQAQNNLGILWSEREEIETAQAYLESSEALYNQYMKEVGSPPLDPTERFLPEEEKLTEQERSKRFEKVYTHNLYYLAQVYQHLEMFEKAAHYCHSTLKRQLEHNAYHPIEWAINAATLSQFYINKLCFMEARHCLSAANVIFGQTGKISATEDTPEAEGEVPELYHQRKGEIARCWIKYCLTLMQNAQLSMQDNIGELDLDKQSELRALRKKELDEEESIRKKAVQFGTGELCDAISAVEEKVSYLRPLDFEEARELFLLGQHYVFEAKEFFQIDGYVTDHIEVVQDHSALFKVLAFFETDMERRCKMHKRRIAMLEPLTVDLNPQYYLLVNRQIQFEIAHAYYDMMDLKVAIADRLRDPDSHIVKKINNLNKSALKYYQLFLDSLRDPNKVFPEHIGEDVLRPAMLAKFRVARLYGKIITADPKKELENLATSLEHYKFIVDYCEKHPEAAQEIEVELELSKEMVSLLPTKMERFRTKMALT
UniProt Q96GI7: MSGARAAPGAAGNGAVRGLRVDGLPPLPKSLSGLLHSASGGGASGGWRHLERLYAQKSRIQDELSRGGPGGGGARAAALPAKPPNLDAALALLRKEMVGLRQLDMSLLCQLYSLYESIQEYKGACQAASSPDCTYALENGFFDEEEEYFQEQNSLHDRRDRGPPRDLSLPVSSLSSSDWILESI
UniProt Q969F1: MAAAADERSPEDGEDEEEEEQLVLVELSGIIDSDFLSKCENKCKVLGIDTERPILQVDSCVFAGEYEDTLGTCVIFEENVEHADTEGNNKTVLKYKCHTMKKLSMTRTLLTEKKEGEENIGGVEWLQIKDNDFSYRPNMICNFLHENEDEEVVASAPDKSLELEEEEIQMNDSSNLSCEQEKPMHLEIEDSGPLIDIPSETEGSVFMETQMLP
UniProt Q96AJ1: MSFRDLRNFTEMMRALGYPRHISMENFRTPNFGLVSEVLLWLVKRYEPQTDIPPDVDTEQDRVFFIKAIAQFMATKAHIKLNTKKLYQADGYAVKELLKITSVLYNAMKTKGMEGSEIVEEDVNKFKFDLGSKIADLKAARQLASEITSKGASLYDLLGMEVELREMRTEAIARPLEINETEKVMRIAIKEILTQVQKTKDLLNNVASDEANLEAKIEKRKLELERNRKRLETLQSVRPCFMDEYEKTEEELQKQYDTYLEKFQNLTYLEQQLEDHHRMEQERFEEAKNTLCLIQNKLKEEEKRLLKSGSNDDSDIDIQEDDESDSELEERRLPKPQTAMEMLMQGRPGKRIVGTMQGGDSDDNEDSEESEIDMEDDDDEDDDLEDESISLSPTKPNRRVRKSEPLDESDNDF
UniProt Q96DC9: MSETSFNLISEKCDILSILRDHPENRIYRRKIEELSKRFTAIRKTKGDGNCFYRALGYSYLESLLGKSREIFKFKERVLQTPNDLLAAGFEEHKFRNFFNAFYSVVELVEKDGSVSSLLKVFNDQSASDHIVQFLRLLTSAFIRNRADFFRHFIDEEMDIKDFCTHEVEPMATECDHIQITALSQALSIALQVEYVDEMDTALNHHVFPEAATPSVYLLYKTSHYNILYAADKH
UniProt Q969S9: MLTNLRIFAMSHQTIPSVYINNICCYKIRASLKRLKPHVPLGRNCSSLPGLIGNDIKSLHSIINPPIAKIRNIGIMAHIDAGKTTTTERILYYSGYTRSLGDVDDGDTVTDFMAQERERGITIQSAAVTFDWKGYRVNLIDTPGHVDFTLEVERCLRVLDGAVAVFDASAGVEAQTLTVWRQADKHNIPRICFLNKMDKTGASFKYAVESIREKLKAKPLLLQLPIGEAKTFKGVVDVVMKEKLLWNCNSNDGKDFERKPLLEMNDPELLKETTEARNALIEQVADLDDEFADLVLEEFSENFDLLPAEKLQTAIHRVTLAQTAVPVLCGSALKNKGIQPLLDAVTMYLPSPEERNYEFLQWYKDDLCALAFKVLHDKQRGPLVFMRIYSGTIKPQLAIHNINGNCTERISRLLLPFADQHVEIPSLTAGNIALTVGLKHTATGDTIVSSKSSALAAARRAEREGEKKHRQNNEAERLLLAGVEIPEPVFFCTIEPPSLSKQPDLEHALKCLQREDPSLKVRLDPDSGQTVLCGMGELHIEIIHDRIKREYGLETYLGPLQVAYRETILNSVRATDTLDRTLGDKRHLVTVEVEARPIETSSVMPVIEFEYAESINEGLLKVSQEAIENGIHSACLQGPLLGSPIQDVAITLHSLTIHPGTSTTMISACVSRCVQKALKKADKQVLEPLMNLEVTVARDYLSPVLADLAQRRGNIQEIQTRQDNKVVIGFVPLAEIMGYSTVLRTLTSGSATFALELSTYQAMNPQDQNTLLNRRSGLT
UniProt Q92989: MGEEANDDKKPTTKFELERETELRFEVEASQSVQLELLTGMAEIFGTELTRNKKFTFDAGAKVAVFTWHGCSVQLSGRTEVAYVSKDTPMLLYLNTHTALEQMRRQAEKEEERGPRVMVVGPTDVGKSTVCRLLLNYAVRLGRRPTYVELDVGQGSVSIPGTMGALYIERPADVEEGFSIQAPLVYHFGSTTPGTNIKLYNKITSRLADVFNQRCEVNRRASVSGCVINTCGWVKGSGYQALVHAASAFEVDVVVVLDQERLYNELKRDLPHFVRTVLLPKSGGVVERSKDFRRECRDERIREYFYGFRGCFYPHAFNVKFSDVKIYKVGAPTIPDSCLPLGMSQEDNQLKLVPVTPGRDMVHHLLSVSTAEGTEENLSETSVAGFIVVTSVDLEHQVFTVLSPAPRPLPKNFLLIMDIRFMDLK
UniProt Q96DP5: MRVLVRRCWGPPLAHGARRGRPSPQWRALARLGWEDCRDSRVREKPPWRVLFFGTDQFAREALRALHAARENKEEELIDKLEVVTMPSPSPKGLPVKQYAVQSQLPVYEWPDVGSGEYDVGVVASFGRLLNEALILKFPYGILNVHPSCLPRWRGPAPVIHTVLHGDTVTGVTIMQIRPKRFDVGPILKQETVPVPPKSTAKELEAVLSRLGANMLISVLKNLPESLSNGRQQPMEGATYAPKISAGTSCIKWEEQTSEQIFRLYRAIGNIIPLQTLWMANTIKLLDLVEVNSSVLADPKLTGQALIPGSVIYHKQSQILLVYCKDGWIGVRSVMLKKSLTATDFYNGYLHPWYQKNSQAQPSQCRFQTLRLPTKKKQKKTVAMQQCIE
UniProt Q96CB9: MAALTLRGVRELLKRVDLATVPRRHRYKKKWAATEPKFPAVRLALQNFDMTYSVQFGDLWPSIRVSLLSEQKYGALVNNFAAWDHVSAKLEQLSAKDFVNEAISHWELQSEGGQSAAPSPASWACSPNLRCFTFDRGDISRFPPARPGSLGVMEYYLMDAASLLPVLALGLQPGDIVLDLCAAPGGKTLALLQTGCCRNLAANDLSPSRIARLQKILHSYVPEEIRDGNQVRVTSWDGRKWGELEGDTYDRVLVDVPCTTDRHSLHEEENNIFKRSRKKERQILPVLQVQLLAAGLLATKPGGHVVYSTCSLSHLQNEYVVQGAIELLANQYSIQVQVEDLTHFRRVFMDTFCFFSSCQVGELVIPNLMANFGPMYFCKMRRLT
UniProt Q96B23: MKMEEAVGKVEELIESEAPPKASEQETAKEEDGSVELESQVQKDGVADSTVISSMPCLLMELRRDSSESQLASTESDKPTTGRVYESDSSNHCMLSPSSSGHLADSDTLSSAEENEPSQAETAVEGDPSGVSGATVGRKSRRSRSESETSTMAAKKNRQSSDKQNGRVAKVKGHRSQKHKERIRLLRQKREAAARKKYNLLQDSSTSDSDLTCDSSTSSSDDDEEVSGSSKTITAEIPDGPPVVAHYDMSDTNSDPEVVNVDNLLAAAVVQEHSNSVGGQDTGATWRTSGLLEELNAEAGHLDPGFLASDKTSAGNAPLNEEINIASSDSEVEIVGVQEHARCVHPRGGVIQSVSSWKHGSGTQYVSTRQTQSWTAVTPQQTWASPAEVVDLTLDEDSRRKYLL
UniProt Q96EY8: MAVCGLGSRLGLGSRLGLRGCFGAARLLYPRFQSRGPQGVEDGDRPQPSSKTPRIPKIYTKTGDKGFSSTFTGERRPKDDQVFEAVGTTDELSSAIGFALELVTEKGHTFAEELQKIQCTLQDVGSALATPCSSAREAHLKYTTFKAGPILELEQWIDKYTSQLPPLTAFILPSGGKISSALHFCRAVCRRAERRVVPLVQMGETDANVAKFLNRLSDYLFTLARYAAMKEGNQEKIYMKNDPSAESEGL

The list shows a part of the results. Most values lie at the level of the controls, where differences are scatter.

Compound in this assay: CN[C@@H]1C[C@H]2O[C@@](C)([C@@H]1OC)n1c3ccccc3c3c4c(c5c6ccccc6n2c5c31)C(=O)NC4 [staurosporine]
The assay is described as follows: log2 fold change of tryptic peptide abundance, ligand vs vehicle (limited proteolysis) (log2 ratio); higher = more trypsin-susceptible (destabilized). The following applies: ligand concentration: 20 uM; sample: K562 cleared lysate; digestion: 4 min, 22 C (HT-PELSA RT4min, Orbitrap Astral).
As for “UniProt Q96EK5 (peptide sequence: VFPEHIGEDVLRPAMLAK, peptide start residue: 530)”, the log2 fold change was 0.404.
As for “FAM89A (peptide sequence: IQDELSR, peptide start residue: 60) (UniProt Q96GI7)”, the log2 fold change is -0.21.
For “GTF3C6 (peptide sequence: EGEENIGGVEWLQIK, peptide start residue: 115) (UniProt Q969F1)” the value was -0.0976; for “CLUAP1 (peptide sequence: EILTQVQK, peptide start residue: 191) (UniProt Q96AJ1)”, 0.248; for “OTUB2 (peptide sequence: CDILSILR, peptide start residue: 13) (UniProt Q96DC9)”, 0.0314.
For “GFM2 (peptide sequence: CLQREDPSLK, peptide start residue: 511) (UniProt Q969S9)” the value was 0.443; for “CLP1 (peptide sequence: EYFYGFR, peptide start residue: 303) (UniProt Q92989)”, -0.189.
For “MTFMT (peptide sequence: FPYGILNVHPSCLPR, peptide start residue: 138) (UniProt Q96DP5)” the value was 0.193; for “NSUN4 (peptide sequence: TLALLQTGCCR, peptide start residue: 188) (UniProt Q96CB9)”, 0.439.
Consider “C18orf25 (peptide sequence: SRSESETSTMAAK, peptide start residue: 143) (UniProt Q96B23)”, for which the log2 fold change was determined as 0.343.
The value for “MMAB (peptide sequence: GPQGVEDGDRPQPSSK, peptide start residue: 36) (UniProt Q96EY8)” was -0.121.
